Assay results taken from the supplement of paper PMC12067093, “Discovery and optimisation of a covalent ligand for TRIM25 and its application to targeted protein ubiquitination” (Chemical Science, 2025).
The other results are listed elsewhere or left out.

The chains behind the UniProt entries cited, without tags or fusion partners. Where a name states a change or a piece, a line headed by the entry shows the natural chain unless it says otherwise.
UniProt Q5R3I4: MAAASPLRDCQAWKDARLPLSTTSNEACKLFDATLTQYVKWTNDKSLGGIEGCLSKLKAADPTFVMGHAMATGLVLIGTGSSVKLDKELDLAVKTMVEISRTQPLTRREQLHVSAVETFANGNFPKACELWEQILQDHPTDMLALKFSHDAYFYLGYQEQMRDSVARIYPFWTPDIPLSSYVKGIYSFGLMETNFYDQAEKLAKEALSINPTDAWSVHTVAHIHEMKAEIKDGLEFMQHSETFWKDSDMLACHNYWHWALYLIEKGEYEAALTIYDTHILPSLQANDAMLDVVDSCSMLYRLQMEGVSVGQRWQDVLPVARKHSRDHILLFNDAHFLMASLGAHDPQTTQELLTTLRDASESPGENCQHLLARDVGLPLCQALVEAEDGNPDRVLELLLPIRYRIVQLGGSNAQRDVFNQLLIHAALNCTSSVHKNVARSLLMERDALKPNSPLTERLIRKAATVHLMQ
UniProt Q9NXH9: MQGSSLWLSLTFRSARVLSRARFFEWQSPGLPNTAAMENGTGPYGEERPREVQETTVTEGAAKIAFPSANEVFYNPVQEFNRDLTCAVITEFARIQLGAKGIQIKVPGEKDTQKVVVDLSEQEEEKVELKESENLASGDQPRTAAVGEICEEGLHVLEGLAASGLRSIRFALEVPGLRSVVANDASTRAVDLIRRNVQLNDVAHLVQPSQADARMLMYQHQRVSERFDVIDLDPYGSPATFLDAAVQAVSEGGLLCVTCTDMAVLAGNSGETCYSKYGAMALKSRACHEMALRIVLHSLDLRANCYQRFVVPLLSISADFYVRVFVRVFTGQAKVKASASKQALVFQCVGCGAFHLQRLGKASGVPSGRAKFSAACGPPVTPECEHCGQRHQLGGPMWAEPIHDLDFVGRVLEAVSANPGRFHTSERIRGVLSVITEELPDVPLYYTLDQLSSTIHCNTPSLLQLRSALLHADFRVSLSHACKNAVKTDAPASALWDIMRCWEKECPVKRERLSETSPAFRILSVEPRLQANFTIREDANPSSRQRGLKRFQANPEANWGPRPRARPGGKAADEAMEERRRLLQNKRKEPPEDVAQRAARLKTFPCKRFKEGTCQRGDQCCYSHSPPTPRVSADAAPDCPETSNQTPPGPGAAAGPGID
UniProt Q7Z4L5: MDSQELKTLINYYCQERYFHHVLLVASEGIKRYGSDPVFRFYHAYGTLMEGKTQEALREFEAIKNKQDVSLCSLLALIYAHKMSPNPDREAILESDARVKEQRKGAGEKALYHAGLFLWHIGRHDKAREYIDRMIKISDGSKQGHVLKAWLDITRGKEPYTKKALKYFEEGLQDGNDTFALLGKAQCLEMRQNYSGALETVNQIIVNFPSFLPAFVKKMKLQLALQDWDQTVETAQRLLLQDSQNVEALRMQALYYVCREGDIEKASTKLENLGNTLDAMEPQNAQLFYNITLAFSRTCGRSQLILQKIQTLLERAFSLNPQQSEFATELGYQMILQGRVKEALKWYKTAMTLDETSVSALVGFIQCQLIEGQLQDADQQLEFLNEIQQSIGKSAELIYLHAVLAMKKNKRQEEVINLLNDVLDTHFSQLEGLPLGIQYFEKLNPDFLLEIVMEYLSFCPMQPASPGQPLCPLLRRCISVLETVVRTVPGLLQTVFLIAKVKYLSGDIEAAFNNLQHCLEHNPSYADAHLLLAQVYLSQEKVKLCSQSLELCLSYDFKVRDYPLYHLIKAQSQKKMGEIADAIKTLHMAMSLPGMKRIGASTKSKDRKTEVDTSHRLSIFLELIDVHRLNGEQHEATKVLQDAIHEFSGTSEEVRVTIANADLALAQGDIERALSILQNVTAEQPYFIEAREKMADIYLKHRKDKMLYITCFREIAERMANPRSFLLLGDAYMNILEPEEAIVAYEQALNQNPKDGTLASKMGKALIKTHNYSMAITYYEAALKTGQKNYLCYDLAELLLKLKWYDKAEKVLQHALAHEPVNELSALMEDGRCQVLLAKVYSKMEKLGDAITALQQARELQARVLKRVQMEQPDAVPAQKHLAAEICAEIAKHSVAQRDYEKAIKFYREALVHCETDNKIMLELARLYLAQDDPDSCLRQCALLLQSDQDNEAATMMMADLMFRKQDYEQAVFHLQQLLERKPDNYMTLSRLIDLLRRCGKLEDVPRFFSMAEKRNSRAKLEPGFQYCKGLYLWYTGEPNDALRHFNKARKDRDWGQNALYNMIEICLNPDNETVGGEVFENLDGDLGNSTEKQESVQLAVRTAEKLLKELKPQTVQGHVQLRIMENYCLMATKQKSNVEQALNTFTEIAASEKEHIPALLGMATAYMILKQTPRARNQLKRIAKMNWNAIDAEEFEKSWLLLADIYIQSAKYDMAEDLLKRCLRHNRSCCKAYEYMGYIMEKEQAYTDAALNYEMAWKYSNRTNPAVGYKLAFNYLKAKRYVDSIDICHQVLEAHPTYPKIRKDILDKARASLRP
UniProt Q8IZ69: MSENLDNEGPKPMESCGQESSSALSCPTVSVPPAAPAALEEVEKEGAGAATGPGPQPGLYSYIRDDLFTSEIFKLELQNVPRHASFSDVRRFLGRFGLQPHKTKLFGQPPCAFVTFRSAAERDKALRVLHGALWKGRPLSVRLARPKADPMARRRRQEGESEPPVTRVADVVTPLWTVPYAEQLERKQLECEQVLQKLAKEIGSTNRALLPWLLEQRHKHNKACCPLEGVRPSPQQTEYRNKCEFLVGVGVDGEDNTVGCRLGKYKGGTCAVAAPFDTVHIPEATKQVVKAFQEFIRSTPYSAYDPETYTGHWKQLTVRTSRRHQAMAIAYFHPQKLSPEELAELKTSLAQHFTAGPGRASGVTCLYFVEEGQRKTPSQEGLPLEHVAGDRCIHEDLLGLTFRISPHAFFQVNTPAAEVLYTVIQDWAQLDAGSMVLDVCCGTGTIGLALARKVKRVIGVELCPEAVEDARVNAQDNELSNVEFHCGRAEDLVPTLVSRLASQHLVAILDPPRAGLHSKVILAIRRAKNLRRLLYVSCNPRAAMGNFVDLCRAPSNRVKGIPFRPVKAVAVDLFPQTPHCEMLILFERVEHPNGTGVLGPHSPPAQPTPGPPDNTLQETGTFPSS
UniProt Q9UNY4: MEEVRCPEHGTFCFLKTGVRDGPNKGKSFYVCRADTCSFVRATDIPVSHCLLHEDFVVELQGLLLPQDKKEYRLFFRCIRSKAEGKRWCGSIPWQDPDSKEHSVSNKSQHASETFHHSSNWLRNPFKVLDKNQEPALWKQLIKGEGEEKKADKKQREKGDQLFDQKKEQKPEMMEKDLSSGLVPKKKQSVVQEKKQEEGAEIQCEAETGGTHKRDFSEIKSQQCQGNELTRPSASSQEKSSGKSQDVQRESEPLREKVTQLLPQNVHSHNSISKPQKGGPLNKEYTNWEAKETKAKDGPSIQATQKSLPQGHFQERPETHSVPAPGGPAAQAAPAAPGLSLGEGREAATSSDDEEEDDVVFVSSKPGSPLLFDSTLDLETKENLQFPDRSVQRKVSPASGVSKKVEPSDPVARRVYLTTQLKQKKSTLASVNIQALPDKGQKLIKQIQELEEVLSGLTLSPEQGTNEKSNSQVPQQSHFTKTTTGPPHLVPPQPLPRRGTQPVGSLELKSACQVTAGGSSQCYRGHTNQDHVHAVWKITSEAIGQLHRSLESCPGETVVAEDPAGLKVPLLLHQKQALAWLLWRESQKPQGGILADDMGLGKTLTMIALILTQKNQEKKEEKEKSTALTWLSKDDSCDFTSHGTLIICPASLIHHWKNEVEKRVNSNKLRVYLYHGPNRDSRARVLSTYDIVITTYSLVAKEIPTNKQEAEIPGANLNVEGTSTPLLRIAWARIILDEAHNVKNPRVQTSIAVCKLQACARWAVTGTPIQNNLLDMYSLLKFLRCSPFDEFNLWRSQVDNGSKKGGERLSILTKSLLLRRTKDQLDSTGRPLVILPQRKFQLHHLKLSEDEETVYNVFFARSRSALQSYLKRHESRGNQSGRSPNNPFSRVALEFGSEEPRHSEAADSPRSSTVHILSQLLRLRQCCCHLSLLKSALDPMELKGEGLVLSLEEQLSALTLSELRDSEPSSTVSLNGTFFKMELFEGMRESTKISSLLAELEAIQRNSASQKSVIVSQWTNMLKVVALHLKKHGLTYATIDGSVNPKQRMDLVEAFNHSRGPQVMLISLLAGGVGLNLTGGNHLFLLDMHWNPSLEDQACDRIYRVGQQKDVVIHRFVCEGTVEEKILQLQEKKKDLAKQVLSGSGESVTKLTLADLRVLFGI
UniProt Q9BSJ2, whole entry, looked up: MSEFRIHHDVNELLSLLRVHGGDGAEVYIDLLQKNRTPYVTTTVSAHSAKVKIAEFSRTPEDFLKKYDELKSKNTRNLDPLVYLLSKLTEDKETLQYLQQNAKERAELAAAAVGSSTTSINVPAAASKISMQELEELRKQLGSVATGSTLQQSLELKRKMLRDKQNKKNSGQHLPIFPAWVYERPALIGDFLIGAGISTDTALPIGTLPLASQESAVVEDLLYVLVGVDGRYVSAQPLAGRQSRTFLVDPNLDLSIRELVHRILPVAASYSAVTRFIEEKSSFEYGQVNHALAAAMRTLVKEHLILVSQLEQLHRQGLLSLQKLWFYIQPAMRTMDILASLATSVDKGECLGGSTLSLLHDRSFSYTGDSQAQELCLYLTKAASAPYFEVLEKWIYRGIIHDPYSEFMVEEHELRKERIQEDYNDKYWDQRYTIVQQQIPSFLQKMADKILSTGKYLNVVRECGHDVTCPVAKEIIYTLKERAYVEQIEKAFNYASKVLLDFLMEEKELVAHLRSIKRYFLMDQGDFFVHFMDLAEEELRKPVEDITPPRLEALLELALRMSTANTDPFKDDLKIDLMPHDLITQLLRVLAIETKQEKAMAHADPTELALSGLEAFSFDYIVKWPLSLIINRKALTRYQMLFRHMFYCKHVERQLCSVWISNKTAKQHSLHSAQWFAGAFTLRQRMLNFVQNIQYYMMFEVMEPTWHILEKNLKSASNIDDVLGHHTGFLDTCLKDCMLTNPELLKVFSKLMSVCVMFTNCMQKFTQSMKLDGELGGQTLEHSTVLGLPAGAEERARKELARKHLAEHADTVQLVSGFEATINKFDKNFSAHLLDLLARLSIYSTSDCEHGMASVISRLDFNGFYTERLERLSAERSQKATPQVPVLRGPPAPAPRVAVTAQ
UniProt Q3B726, whole entry, looked up: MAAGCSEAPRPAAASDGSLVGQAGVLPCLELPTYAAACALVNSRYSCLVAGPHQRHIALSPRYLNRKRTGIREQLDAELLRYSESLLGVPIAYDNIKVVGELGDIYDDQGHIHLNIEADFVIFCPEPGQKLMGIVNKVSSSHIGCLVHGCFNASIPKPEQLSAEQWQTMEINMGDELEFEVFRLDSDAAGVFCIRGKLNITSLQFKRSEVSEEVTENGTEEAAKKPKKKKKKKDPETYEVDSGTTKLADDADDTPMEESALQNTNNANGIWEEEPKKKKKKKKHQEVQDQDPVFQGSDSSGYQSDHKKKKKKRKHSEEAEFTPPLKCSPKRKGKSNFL
UniProt Q8NBS9: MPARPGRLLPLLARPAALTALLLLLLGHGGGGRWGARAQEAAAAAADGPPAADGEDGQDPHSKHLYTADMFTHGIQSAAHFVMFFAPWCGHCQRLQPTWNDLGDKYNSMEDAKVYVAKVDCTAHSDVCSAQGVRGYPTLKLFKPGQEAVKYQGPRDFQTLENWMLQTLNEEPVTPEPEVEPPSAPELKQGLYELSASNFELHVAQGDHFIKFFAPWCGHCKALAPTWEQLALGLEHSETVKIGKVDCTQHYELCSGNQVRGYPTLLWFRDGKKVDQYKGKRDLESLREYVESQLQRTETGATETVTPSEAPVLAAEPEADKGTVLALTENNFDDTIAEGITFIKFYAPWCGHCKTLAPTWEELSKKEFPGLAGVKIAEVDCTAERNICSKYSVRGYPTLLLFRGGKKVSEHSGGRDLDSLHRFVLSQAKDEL
UniProt Q9Y5U2: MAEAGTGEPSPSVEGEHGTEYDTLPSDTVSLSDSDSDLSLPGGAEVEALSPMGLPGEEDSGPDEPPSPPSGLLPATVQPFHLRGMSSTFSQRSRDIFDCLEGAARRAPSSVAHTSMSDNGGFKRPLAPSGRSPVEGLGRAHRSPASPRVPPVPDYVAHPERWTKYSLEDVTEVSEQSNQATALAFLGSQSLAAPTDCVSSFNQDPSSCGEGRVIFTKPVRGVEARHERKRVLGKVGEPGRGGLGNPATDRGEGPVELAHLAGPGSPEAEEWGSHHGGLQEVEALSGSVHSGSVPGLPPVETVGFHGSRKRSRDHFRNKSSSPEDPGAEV
UniProt Q8NG11: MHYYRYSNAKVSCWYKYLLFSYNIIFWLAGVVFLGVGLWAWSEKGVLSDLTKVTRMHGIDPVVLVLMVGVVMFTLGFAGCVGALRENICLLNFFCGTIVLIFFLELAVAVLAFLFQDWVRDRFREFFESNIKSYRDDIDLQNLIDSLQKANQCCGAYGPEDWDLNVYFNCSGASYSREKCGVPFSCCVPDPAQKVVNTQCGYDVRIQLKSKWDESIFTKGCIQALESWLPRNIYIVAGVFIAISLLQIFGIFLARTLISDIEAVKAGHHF

The targets below were run with CC1Cc2ccccc2N1C(=O)C1CCCN(C1)C(=O)CCl (mixture of isomers) [TRIM25 ligand 11 (diastereomer mixture)] (assay: probe-labelled cysteine peptide fold change vs DMSO (competition) (log2 fold change); higher = less target engagement (more negative = stronger competition)). Conditions: 10 µM; THP-1; incubation time: 4 h.
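Further: competitive chemoproteomic profiling in live THP-1 cells with an iodoacetamide desthiobiotin (IA-DTB) probe, comparing probe-labelled peptide intensities in compound-treated cells against DMSO-treated controls.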

Row | Target | probe-labelled cysteine peptide fold change
1 | TUBGCP4_Q9UGJ1_162_HSCGGLPPVR (UniProt Q9UGJ1) | -0.0263
2 | TTC38_Q5R3I4_128_ACELWEQILQDHPTDMLALK (UniProt Q5R3I4) | -0.15
3 | TRMT1_Q9NXH9_387_FSAACGPPVTPECEHCGQR (UniProt Q9NXH9) | -0.00524
4 | TUT4_Q5TAX3_458_VPVVVCR (UniProt Q5TAX3) | -0.11
5 | TSPYL1_Q9H0U9_375_NQDLICSFFTWFSDHSLPESDK (UniProt Q9H0U9) | 0.789
6 | TSC1_Q92574_822_VCHTELLLSQVSQK (UniProt Q92574) | -0.0685
7 | TSNAX_Q99598_257_VENACYALK (UniProt Q99598) | -0.025
8 | TTC21B_Q7Z4L5_914_EALVHCETDNK (UniProt Q7Z4L5) | -0.0273
9 | TSC2_P49815_1587_DCQPDK (UniProt P49815) | 0.0403
10 | TRMT2A_Q8IZ69_365_ASGVTCLYFVEEGQR (UniProt Q8IZ69) | -0.161
11 | TTC30B_Q8N4P2_619_DSVIQECVQFLEHCELHGR (UniProt Q8N4P2) | 0.056
12 | TRMT2A_Q8IZ69_270_GGTCAVAAPFDTVHIPEATK (UniProt Q8IZ69) | -0.145
13 | TTF2_Q9UNY4_648_DDSCDFTSHGTLIICPASLIHHWK (UniProt Q9UNY4) | 0.127
14 | TSPYL5_Q86VY4_79_LGEEAACR (UniProt Q86VY4) | -0.196
15 | TTC37_Q6PGP7_705_ALEYFTCALQHR (UniProt Q6PGP7) | -0.00615
16 | TTC27_Q6P3X3_549_EFQECVECFER (UniProt Q6P3X3) | 0.0728
17 | TUBGCP2_Q9BSJ2_733_SASNIDDVLGHHTGFLDTCLK (UniProt Q9BSJ2) | 0.244
18 | TTC27_Q6P3X3_299_EGDVLSNCEFTPAPTPQEHLTK (UniProt Q6P3X3) | 0.0346
19 | TWISTNB_Q3B726_193_LDSDAAGVFCIR (UniProt Q3B726) | 0.298

Row | Target | probe-labelled cysteine peptide fold change
20 | TXN2_Q99757_93_VVNSETPVVVDFHAQWCGPCK (UniProt Q99757) | -0.376
21 | TUT4_Q5TAX3_994_LCLFGSSK (UniProt Q5TAX3) | 0.0568
22 | TUBA1B_P68363_347_RSIQFVDWCPTGFK (UniProt P68363) | -0.0614
23 | TRRAP_Q9Y4A5_429_LLLNLVDCIR (UniProt Q9Y4A5) | 0.0648
24 | TUBB6_Q9BUF5_127+129_KECEHCDCLQGFQLTHSLGGGTGSGMGTLLISK (UniProt Q9BUF5) | -0.128
25 | TUBB6_Q9BUF5_129_ECEHCDCLQGFQLTHSLGGGTGSGMGTLLISK (UniProt Q9BUF5) | 0.0297
26 | TXNDC5_Q8NBS9_121+128_VDCTAHSDVCSAQGVR (UniProt Q8NBS9) | -0.00753
27 | TTC37_Q6PGP7_305_ESPVCTSGWYHLAEAQVK (UniProt Q6PGP7) | -0.0017
28 | TTI2_Q6NXR4_185_EVLTSLLQVTECGSVAGFLHGENEDEK (UniProt Q6NXR4) | 0.0182
29 | TSTA3_Q13630_163_AYFQQYGCTFTAVIPTNVFGPHDNFNIEDGHVLPGLIHK (UniProt Q13630) | 0.225
30 | TSSC4_Q9Y5U2_99_DIFDCLEGAAR (UniProt Q9Y5U2) | -0.262
31 | TRMT1_Q9NXH9_620+621_GDQCCYSHSPPTPR (UniProt Q9NXH9) | 0.00833
32 | TUT4_Q5TAX3_825_KQDDLAPSETCLK (UniProt Q5TAX3) | 0.0258
33 | TTC7A_Q9ULT0_299_HLAGVLLHSLSEECYWSPLSHPLPEFMGK (UniProt Q9ULT0) | 0.103
34 | TRMT2A_Q8IZ69_243+260_CEFLVGVGVDGEDNTVGCR (UniProt Q8IZ69) | 0.183
35 | TXLNG_Q9NUQ3_101_NLVSPAYCTQESR (UniProt Q9NUQ3) | 0.0434
36 | TSPAN14_Q8NG11_200_VVNTQCGYDVR (UniProt Q8NG11) | -0.13
37 | TST_Q16762_64_HVPGASFFDIEECRDTASPYEMMLPSEAGFAEYVGR (UniProt Q16762) | 0.0284

Same assay, conditions: 50 µM; THP-1; incubation time: 4 h

Row | Target | probe-labelled cysteine peptide fold change
38 | TUBGCP4_Q9UGJ1_162_HSCGGLPPVR (UniProt Q9UGJ1) | -0.0338
39 | TTC38_Q5R3I4_128_ACELWEQILQDHPTDMLALK (UniProt Q5R3I4) | -0.251
40 | TRMT1_Q9NXH9_387_FSAACGPPVTPECEHCGQR (UniProt Q9NXH9) | -0.111
41 | TUT4_Q5TAX3_458_VPVVVCR (UniProt Q5TAX3) | 0.271
42 | TSPYL1_Q9H0U9_375_NQDLICSFFTWFSDHSLPESDK (UniProt Q9H0U9) | 0.39
43 | TSC1_Q92574_822_VCHTELLLSQVSQK (UniProt Q92574) | 0.0424
44 | TSNAX_Q99598_257_VENACYALK (UniProt Q99598) | -0.0763
45 | TTC21B_Q7Z4L5_914_EALVHCETDNK (UniProt Q7Z4L5) | -0.0167
46 | TSC2_P49815_1587_DCQPDK (UniProt P49815) | 0.0682
47 | TRMT2A_Q8IZ69_365_ASGVTCLYFVEEGQR (UniProt Q8IZ69) | 0.157
48 | TTC30B_Q8N4P2_619_DSVIQECVQFLEHCELHGR (UniProt Q8N4P2) | 0.655
49 | TRMT2A_Q8IZ69_270_GGTCAVAAPFDTVHIPEATK (UniProt Q8IZ69) | -0.0789
50 | TTF2_Q9UNY4_648_DDSCDFTSHGTLIICPASLIHHWK (UniProt Q9UNY4) | 0.0472
51 | TSPYL5_Q86VY4_79_LGEEAACR (UniProt Q86VY4) | -0.262
52 | TTC37_Q6PGP7_705_ALEYFTCALQHR (UniProt Q6PGP7) | -0.0486
53 | TTC27_Q6P3X3_549_EFQECVECFER (UniProt Q6P3X3) | 0.188
54 | TUBGCP2_Q9BSJ2_733_SASNIDDVLGHHTGFLDTCLK (UniProt Q9BSJ2) | 0.0122
55 | TTC27_Q6P3X3_299_EGDVLSNCEFTPAPTPQEHLTK (UniProt Q6P3X3) | -0.306
56 | TWISTNB_Q3B726_193_LDSDAAGVFCIR (UniProt Q3B726) | 0.202

Row | Target | probe-labelled cysteine peptide fold change
57 | TXN2_Q99757_93_VVNSETPVVVDFHAQWCGPCK (UniProt Q99757) | -1.25
58 | TUT4_Q5TAX3_994_LCLFGSSK (UniProt Q5TAX3) | -0.0335
59 | TUBA1B_P68363_347_RSIQFVDWCPTGFK (UniProt P68363) | -0.0951
60 | TRRAP_Q9Y4A5_429_LLLNLVDCIR (UniProt Q9Y4A5) | 0.0297
61 | TUBB6_Q9BUF5_127+129_KECEHCDCLQGFQLTHSLGGGTGSGMGTLLISK (UniProt Q9BUF5) | -0.141
62 | TUBB6_Q9BUF5_129_ECEHCDCLQGFQLTHSLGGGTGSGMGTLLISK (UniProt Q9BUF5) | -0.0597
63 | TXNDC5_Q8NBS9_121+128_VDCTAHSDVCSAQGVR (UniProt Q8NBS9) | -0.27
64 | TTC37_Q6PGP7_305_ESPVCTSGWYHLAEAQVK (UniProt Q6PGP7) | 0.0178
65 | TTI2_Q6NXR4_185_EVLTSLLQVTECGSVAGFLHGENEDEK (UniProt Q6NXR4) | 0.114
66 | TSTA3_Q13630_163_AYFQQYGCTFTAVIPTNVFGPHDNFNIEDGHVLPGLIHK (UniProt Q13630) | 0.239
67 | TSSC4_Q9Y5U2_99_DIFDCLEGAAR (UniProt Q9Y5U2) | -0.272
68 | TRMT1_Q9NXH9_620+621_GDQCCYSHSPPTPR (UniProt Q9NXH9) | -0.313
69 | TUT4_Q5TAX3_825_KQDDLAPSETCLK (UniProt Q5TAX3) | -0.114
70 | TTC7A_Q9ULT0_299_HLAGVLLHSLSEECYWSPLSHPLPEFMGK (UniProt Q9ULT0) | 0.21
71 | TRMT2A_Q8IZ69_243+260_CEFLVGVGVDGEDNTVGCR (UniProt Q8IZ69) | 0.123
72 | TXLNG_Q9NUQ3_101_NLVSPAYCTQESR (UniProt Q9NUQ3) | -0.191
73 | TSPAN14_Q8NG11_200_VVNTQCGYDVR (UniProt Q8NG11) | -0.0684
74 | TST_Q16762_64_HVPGASFFDIEECRDTASPYEMMLPSEAGFAEYVGR (UniProt Q16762) | -0.153
